# Test results: publication PMC12040169 (PLOS Biology, 2025)
# This is one part of the list.
# Tested on: T1, CTL2-GFP (C. trachomatis L2/434/Bu, GFP-expressing)
# T1 construct: L2/434/Bu, GFP-expressing
# Design: species or system HeLa; Intracellular C. trachomatis growth in HeLa cells, bulk GFP fluorescence relative to DMSO
# Details: bulk GFP, single well; 28.5 h, 10 µM; inhibitor
row,SMILES,% of control remaining [%]
1,CCc1ccc(CNC(=O)Cn2nnc(-c3ccc(CN4CCC(C)CC4)cn3)n2)cc1 [CBK153928C],87.0802
2,O=C(NCCS(=O)(=O)c1ccccc1)c1cnc(-c2ccc(Cl)cc2)c(-c2ccncc2)c1 [CBK037587],97.6039
3,COc1ccc(S(=O)(=O)n2ccc3cc(N4CCN(C)CC4)ccc32)cc1OC [CBK000286C],136.081
4,O=C1NC2=C(C(=O)N(CC3CCCO3)C2)C(c2cccc(F)c2)N1 (stereo not drawn) [CBK282364],122.62
5,COCCNC(=O)C(Cc1ccc(-c2ccc(S(C)(=O)=O)cc2)cc1)C1CCN(C(=O)OC(C)(C)C)CC1 (stereo not drawn) [CBK173129],83.2733
6,Cn1ccnc1C(NC(=O)N1CCOc2ccc(Cl)cc2C1)C1CC1 (stereo not drawn) [CBK307212],138.417
7,CSc1ccccc1C(=O)Nc1sc2c(c1C#N)CCN(C(C)=O)C2 [CBK304183],91.5942
8,CSc1nc(C(=O)N2CCCCC2c2cccc(F)c2)cs1 (stereo not drawn) [CBK306732],80.6825
9,Cl/C(=C\c1ccccc1)CN1CCOCC1 [CBK261892],100.897
10,O=C(NCCCN1CCOCC1)/C(=N\O)c1ccccn1 [CBK288366],132.28
11,COc1ccc(C(=O)CSc2nnc(-c3ccccc3)c3ccccc23)cc1OC [CBK297088],139.16
12,Cc1cc(C(=O)N2CCC(F)CC2)n[nH]1 [CBK200277],110.395
13,CCOc1ccc(C(=O)NC(=S)Nc2sc(C)c(C)c2C#N)cc1Cl [CBK268900],134.542
14,COc1cc(/C=C2\SC(=S)N(Cc3cccnc3)C2=O)ccc1OCc1cccc2ccccc12 [CBK264624],95.9005
15,O=C(c1cccs1)N1CCCC1c1nc2ccccc2[nH]1 (stereo not drawn) [CBK284006],164.768
16,CN1CCOC(CNc2nc(-c3ccncc3)nc3c2CCC3)C1 (stereo not drawn) [CBK304890],48.7707
17,COc1ccc(C(C)c2cc3c(cc2OCCO)OCO3)c(F)c1 (stereo not drawn) [CBK200111],96.3869
18,CN(C)c1nc(N2CCN(c3ccc(F)cc3)CC2)cc(C(F)(F)F)n1 [CBK007432],84.6451
19,O=C(CC1Oc2ccccc2NC1=O)Nc1ccc2c(c1)CN(Cc1ccccc1)C2 (stereo not drawn) [CBK285991],125.264
20,CCC(=O)Nc1ccc(-c2csc(N3CCCC(C)C3)n2)cc1 (stereo not drawn) [CBK306478],107.001
21,CN(C)c1ccc(/C=C/CN2CCN(c3ccc([N+](=O)[O-])cc3)CC2)cc1 [CBK261904],123.261
22,NS(=O)(=O)c1ccc(NC(=O)CCCN2C(=O)/C(=C/c3ccc(Cl)cc3)SC2=S)cc1 [CBK261302],105.555
23,COC(=O)c1sc2cc(C(F)(F)F)cnc2c1-c1cccnc1 [CBK089885],116.685
24,Nc1ccc2ccc(-c3ccncc3)nc2n1 [CBK067622],128.148
25,O=C(Nc1nnc(-c2ccc3c(c2)OCCO3)o1)c1ccccc1F [CBK287405],112.231
26,Cc1ccc(NS(=O)(=O)c2cc(C(=O)N3CCN(C)CC3)ccc2C)cc1C [CBK269268],136.732

# Quoted at random: four compounds from above.
row,SMILES,% of control remaining [%]
9,Cl/C(=C\c1ccccc1)CN1CCOCC1 [CBK261892],100.897
14,COc1cc(/C=C2\SC(=S)N(Cc3cccnc3)C2=O)ccc1OCc1cccc2ccccc12 [CBK264624],95.9005
2,O=C(NCCS(=O)(=O)c1ccccc1)c1cnc(-c2ccc(Cl)cc2)c(-c2ccncc2)c1 [CBK037587],97.6039
22,NS(=O)(=O)c1ccc(NC(=O)CCCN2C(=O)/C(=C/c3ccc(Cl)cc3)SC2=S)cc1 [CBK261302],105.555

# Next part.

row,SMILES,% of control remaining [%]
1,COc1cccc(CNC(=O)CCc2nc3ccccc3[nH]2)c1 [CBK288003],108.424
2,O=C1CCCC2=C1C(c1ccc(OCc3ccccc3)cc1)c1c([nH][nH]c1=O)N2 (stereo not drawn) [CBK288149],122.159
3,CC(C)(C)c1ccc(S(N)(=O)=O)cc1NC(=O)Nc1cccc(F)c1 [CBK093643],93.0131
4,CCn1nc(CO)c2c1CCN(CC(=O)NCc1cccs1)C2 [CBK307638],119.259
5,CC(C)(CC(=O)O)CC(=O)N1CCCC1c1nc(-c2ccccc2)c2ccccn12 (stereo not drawn) [CBK046399],100
6,N#Cc1ccc(C(=O)N2CC[C@H]3NC(=O)N(c4ccccc4)C(=O)[C@H]32)cc1 [CBK289282],134.295
7,Fc1ccc(-c2noc(C3CCN(CCc4ccccc4)CC3)n2)cc1 [CBK051457],111.584
8,CCN(CC)CCCOC1(C)SC(NC2CCCCCC2)=NC1=O (stereo not drawn) [CBK113510],143.867
9,O=C(CSc1cnn[nH]1)Nc1ccccc1F [CBK269903],97.016
10,CS(=O)(=O)c1ccc(-c2ccc3c(c2)CN(C2CCN(C(=O)c4ccccc4)CC2)CCO3)cc1 [CBK169265],111.116
11,Fc1ccc(-c2cn3ccnc3c(NC3CC3)n2)cc1F [CBK066692],185.674
12,Cc1ccc(CNC(=O)c2ccc3c(c2)nc(N2CC[C@H](O)C2)n3C)s1 [CBK306837],138.645
13,O=C(c1sccc1Br)N1CCN(Cc2ccc3c(c2)OCO3)CC1 [CBK074730],47.4343
14,CC1CCN(C(=O)C[C@@H]2O[C@H](CNC(=O)C3CC3)[C@@H](O)[C@H]2O)CC1 [CBK288926],141.078
15,Nc1cc2cccnc2c(-c2ccc3c(c2)CCO3)n1 [CBK081173],128.849
16,Nc1cc2cccnc2nc1-c1ccc(OC(F)(F)F)cc1 [CBK067616],100.599
17,CCNS(=O)(=O)c1ccc2c(c1)N(Cc1n[nH]c(CC)n1)CC2 [CBK306434],85.1024
18,Nc1nc(NCCOc2ccccc2F)cc(C2CCOC2)n1 (stereo not drawn) [CBK306559],141.799
19,Cc1ccc(N(CC(=O)N/N=C2\C(=O)Nc3ccccc32)S(=O)(=O)c2ccccc2)cc1 [CBK262169],79.9783
20,CC(=O)NCCSc1cccc(C(F)(F)F)n1 [CBK105299],128.373
21,O=C1NC2CCCCC2NC1CC(=O)N1CCN(C(c2ccccc2)c2ccccc2)CC1 (stereo not drawn) [CBK269201],145.193
22,COc1ccccc1-c1ccc(CN(C)Cc2ccccc2N2CCOCC2)cc1 [CBK286108],83.7407
23,O=[N+]([O-])c1ccc(/C=N/CCCN2CCOCC2)cc1 [CBK261058],121.962
24,COc1ccc(C(=O)N2CCC3(CC2)NC(=O)c2ccc(C(F)(F)F)cc2O3)cc1OC [CBK166265],167.358
25,CCn1nc2c(C)cc3cc(OC)ccc3n2c1=O [CBK283823],193.256
26,Cc1ccc2cc(CN(Cc3ccccc3)C(=O)NCc3c(Cl)cccc3Cl)c(=O)[nH]c2c1C [CBK132088],128.883

row,SMILES,% of control remaining [%]
1,Cc1nnc2n1CCN(CC1CCCCO1)C2 (stereo not drawn) [CBK304267],126.77
2,COc1cccc(CCN2CCC(C(=O)NC(C)c3cccc4ccccc34)CC2)c1 (stereo not drawn) [CBK148650],84.4196
3,CC(C)(C)OC(=O)N1CCN(c2ccc(N)cn2)CC1 [CBK003463],102.354
4,Cc1c(C(=O)NC2(c3ccc(F)cc3)CCCC2)cnn1C [CBK283978],121.521
5,Cc1cc(C)n(CC(=O)N2CCC(Nc3cccnn3)CC2)n1 [CBK306234],145.63
6,CC(C)(C)NC(=O)C[C@@H]1CCNC[C@@H]1Cc1cc(-c2ccc(F)cc2)on1 [CBK288802],132.57
7,Cc1ccc(CN[C@@H]2CCC(=O)N[C@H]2c2cc(F)cc(F)c2)o1 [CBK283128],112.681
8,CCCC/C=C/c1cnc(N)c(Nc2ccc3[nH]ccc3c2)n1 [CBK063811],201.209
9,Cc1ccc(CO)cc1NC(=O)[C@@H]1CN(Cc2ccccc2)C[C@H]1C(=O)c1ccc(F)cc1 [CBK286431],119.314
10,Nc1cc2cccnc2c(-c2cccc(C(F)(F)F)c2)n1 [CBK081177],118.593
11,COc1ccc2c(ccn2CC(=O)NC[C@H]2CC[C@H](C(=O)O)CC2)c1 [CBK286687],95.5974
12,COCC(=O)NC(Cc1ccsc1)c1nc(C)cs1 (stereo not drawn) [CBK282804],101.842
13,OCCN1CCN(c2nc(-c3ccc4c(c3)OCO4)cn3ccnc23)CC1 [CBK037443],159.84
14,Nc1ncc(-c2ccco2)nc1N1CCC(C(=O)O)CC1 [CBK063440],108.411
15,COc1cccc(CNCCO)c1OCc1ccccc1F [CBK266594C],128.858
16,COC(=O)Cn1cc(CN2CC3CCCN3C[C@H]2C)c2ccccc21 (stereo partly drawn) [CBK285436],116.618
17,O=C(COc1ccc([N+](=O)[O-])cc1)Nc1ccc(CN2CCCCC2)cc1 [CBK266204],120.493
18,O=C(c1cncnc1)N1CCC2(CCCNC2)C1 (stereo not drawn) [CBK153237C],117.831
19,COc1cccc(CN2CCN(C(=O)N3CCCCC3)[C@@H](C)C2)c1 [CBK284266],151.165
20,CCn1c(N2CCC(C(=O)NC3CC3)CC2)nc2ccccc21 [CBK283922],119.274
21,O=[N+]([O-])c1ccc(-c2nc3ccc(Br)cn3[n+]2[O-])cc1 [CBK262335],129.148
22,Nc1ncc(-c2ccc(F)cc2)c(C2CCCN(C(=O)CCc3ccc(F)cc3)C2)n1 (stereo not drawn) [CBK286092],92.3414
23,O=C(Nc1ccc(S(=O)(=O)Nc2ccc(Cl)cc2)cc1)c1ccc(Cn2cc(Br)cn2)o1 [CBK265764],36.4441
24,CC(=O)Nc1ccc(N2C(=O)CC(NCCCN3CCOCC3)C2=O)cc1 (stereo not drawn) [CBK265236],109.982
25,CCN1C(=O)CC2(C1=O)C(=O)N(Cc1nnc(-c3ccc(C)cc3)o1)c1ccc(OC)cc12 (stereo not drawn) [CBK075586],118.855
26,O=C(O)c1cccc(NS(=O)(=O)c2ccc(Br)cc2C(F)(F)F)c1 [CBK155724],138.548
